Results taken from PMC7819943, “Rice protein-binding microarrays: a tool to detect cis-acting elements near promoter regions in rice”.
Some of the results follow.

target: T1, OsSMF1 (Oryza sativa, UniProt Q6ZLB0 1-436); assay: protein-binding microarray (RPBM); PBS, 2% BSA, 51.3 ng/ul salmon testes DNA, 50 uM zinc acetate, 200 nM TF, 25 C, 1 h; high values mean tight binding; conditions: protein: recombinant; tags: N-terminal polyhistidine and DsRed monomer fusion (pET32a); chain copies: 2; label: CyDye5-dUTP incorporated in the synthesized complementary strand; 3' TTTTT single-stranded linker to array surface; dsDNA, one strand shown
T1 sequence: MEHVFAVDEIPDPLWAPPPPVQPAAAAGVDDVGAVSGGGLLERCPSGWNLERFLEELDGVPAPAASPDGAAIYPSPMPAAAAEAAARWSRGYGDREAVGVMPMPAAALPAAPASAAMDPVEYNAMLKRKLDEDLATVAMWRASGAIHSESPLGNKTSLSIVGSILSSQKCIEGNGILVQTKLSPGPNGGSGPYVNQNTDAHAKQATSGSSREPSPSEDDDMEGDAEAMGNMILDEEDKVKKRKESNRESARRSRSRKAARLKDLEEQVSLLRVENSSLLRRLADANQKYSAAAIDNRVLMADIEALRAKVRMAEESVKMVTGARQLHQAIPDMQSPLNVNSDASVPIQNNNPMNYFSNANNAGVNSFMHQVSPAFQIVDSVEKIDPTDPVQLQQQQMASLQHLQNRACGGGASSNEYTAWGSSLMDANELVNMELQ
Procedure, shortened: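 The binding signal is fluorescence intensity per array feature (arbitrary units). Readings came from an Axon 4000B scanner after a washed, 2% BSA-blocked, double-stranded custom Agilent array had been incubated for 1 h at 25 °C with 200 nM protein and 50 µM zinc acetate. The protein was a Ni–NTA-purified transcription factor fused N-terminally to polyhistidine and DsRed, expressed in E. coli BL21-CodonPlus.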

Sequence | binding signal
TAAAATTACCGGCCCGGATGAAACAGTCACGCCTAACTACCGGAGTCACCTAGTGCAG | 3540 fluorescence intensity (a.u.)
CATCATTTATTGGCAGGTTGTTTGTGCAGTTGCTTGTTTTCGGAGTCACCTAGTGCAG | 13800 fluorescence intensity (a.u.)
AGCACAGAGCAGGAATGAAGTTTGGAGTCATGCCTACCAGCGGAGTCACCTAGTGCAG | 3180 fluorescence intensity (a.u.)
AAGGAAGTATACAATTCGGTCATTTTCAAATGGATTTCCTCGGAGTCACCTAGTGCAG | 34100 fluorescence intensity (a.u.)
ACGGCGGTGACGAGGGAAGGGGAGGCCGGCGTGGCGGCGCCGGAGTCACCTAGTGCAG | 3810 fluorescence intensity (a.u.)
ACAAGTCCATCATCACCGACATTTAGTCTTGTGTCATCAACGGAGTCACCTAGTGCAG | 4360 fluorescence intensity (a.u.)
AACAGTAGCCATTCCACACAAATAGTACGCCCTGTGCATGCGGAGTCACCTAGTGCAG | 3870 fluorescence intensity (a.u.)
CGTCCTCTGCCACGTCTTGTCGATTTGTCTTCCGTCAGCACGGAGTCACCTAGTGCAG | 11500 fluorescence intensity (a.u.)
CCAATCCTCGTATCTTGGGTAAGGTACCGAGGTGGTACCTCGGAGTCACCTAGTGCAG | 3360 fluorescence intensity (a.u.)
AGCAAATATTTACTGTAGTACTACACTGTCAAATCATGTACGGAGTCACCTAGTGCAG | 3610 fluorescence intensity (a.u.)
GAAGTCCAAGGCTGCGCCTACGTCACGCATGCGCGCATCGCGGAGTCACCTAGTGCAG | 10400 fluorescence intensity (a.u.)
TCCACTCCCTGTCGCGCGCCACGTCGCCTGCTGCCGCCCGCGGAGTCACCTAGTGCAG | 14300 fluorescence intensity (a.u.)
ACTTGGTAGTGCTAACTCTTAAATTTAACTTTAGAAATTGCGGAGTCACCTAGTGCAG | 12100 fluorescence intensity (a.u.)
TCGCGCGCGAGCGAAGCCGAGCATCAGCATCTCTCTCCCCCGGAGTCACCTAGTGCAG | 3290 fluorescence intensity (a.u.)
AAATCCTTGTCTTCCCACGCTGACGCTGCTGTGTCCAGGTCGGAGTCACCTAGTGCAG | 4530 fluorescence intensity (a.u.)
AACATGCTTGGAATTGGTCGCTCCGTCATCTACATTGTCACGGAGTCACCTAGTGCAG | 3630 fluorescence intensity (a.u.)
TAGTGTGCTGCGAACGTTCACTCTCACAACCAGTCAACCACGGAGTCACCTAGTGCAG | 3430 fluorescence intensity (a.u.)
CATTCACGTGCCACATCAACTTGATCACGAACTTTGAATACGGAGTCACCTAGTGCAG | 3210 fluorescence intensity (a.u.)
CGCATGGCGCGTGGCAAGCGGCGTCGCGACGTGTCGCTGGCGGAGTCACCTAGTGCAG | 3650 fluorescence intensity (a.u.)
TGGGTTGTTGCGTGTTACGATGACGGTTGCAAATCGTGTTCGGAGTCACCTAGTGCAG | 6000 fluorescence intensity (a.u.)
ATTCTGAATAACAAACTATAGATCATTCAAGTCACAACGACGGAGTCACCTAGTGCAG | 3350 fluorescence intensity (a.u.)
ACGCGCTGACGCACGGGCTCAGCTGCATCAGGTCGCACGACGGAGTCACCTAGTGCAG | 5680 fluorescence intensity (a.u.)
CGGAGATACCTCCGATGACCTGGGCCGTAAAAGGCCCATACGGAGTCACCTAGTGCAG | 3490 fluorescence intensity (a.u.)
AGAGAGAGAGATAGAGAGAGAGAGAGTGACACAAAACCCTCGGAGTCACCTAGTGCAG | 3310 fluorescence intensity (a.u.)
GGAAGATTAGTTTAATCCGACCCACGCATCGCCATGGACCCGGAGTCACCTAGTGCAG | 3170 fluorescence intensity (a.u.)
GAGCAGAGCTCTCCTTGATCAGGTCCAATATTCCAGTATGCGGAGTCACCTAGTGCAG | 4630 fluorescence intensity (a.u.)
ACAGTGGATCCCCGAATTGTCACGGCTGATGTAAGCATATCGGAGTCACCTAGTGCAG | 6040 fluorescence intensity (a.u.)

Sequence | binding signal
CCAGCCACCCAGGTGAATTGGACACGGACCTTCGATTTTCCGGAGTCACCTAGTGCAG | 3650 fluorescence intensity (a.u.)
CCGGCGTACGTCGTCAGCGTTCCAGCCCAAACACATTCCACGGAGTCACCTAGTGCAG | 3350 fluorescence intensity (a.u.)
GTCTCACCGTCGGACTTGTGGCCGAGCTCCCACGTCAGCTCGGAGTCACCTAGTGCAG | 22800 fluorescence intensity (a.u.)
TAAGCCTCTGATGAAACTGATGAAACTTGGAGGACTACTTCGGAGTCACCTAGTGCAG | 26600 fluorescence intensity (a.u.)
AACCATAATGTTTGTGACACATTAAGGGCCTGTTCACTTTCGGAGTCACCTAGTGCAG | 3660 fluorescence intensity (a.u.)
GCCGCCTCCCTTCTCGCAGCTCTGGTGACGCCTCCTGTCTCGGAGTCACCTAGTGCAG | 3530 fluorescence intensity (a.u.)
GAGAGATGGGGAGAGATCAAGAGGAAGAAGATCAGGGGTGCGGAGTCACCTAGTGCAG | 3160 fluorescence intensity (a.u.)
CCCTGCCGCCTGCGCCCATCTCCGTCATGCGAGCTGAAGGCGGAGTCACCTAGTGCAG | 3520 fluorescence intensity (a.u.)
TGACATGTGGGCCCGAGGGTCCGTGGGGTCCACGTGTGAGCGGAGTCACCTAGTGCAG | 7720 fluorescence intensity (a.u.)
CCCATACACGTATGCATACGTGCGTCATACTTTAATTACTCGGAGTCACCTAGTGCAG | 6820 fluorescence intensity (a.u.)
TCGCTCTGTACTTTACACGTTGGTTCCTTTTGTATGTGATCGGAGTCACCTAGTGCAG | 3250 fluorescence intensity (a.u.)
CGTCCTTATTGTGGTTTTCCACGTGTTTGTCTCTGTGTTTCGGAGTCACCTAGTGCAG | 10100 fluorescence intensity (a.u.)
ATACCCTCTGCTTCCTTCCTACGCTACTGTCTTTCTTCTTCGGAGTCACCTAGTGCAG | 3560 fluorescence intensity (a.u.)
CGAGTTTAGAATCCACACCATGATTACATGTAAACAACGTCGGAGTCACCTAGTGCAG | 44700 fluorescence intensity (a.u.)
GGTGGGTAGCCGTCGTCACTCCACTGCGCTCTCGCTGTCCCGGAGTCACCTAGTGCAG | 4350 fluorescence intensity (a.u.)
AGATATAGATCTGATGCAATTACAACCAGCCAAATGACGTCGGAGTCACCTAGTGCAG | 3930 fluorescence intensity (a.u.)
TTATCTAAAACATCAATTAATATGGAACTGGTGGAGGGAGCGGAGTCACCTAGTGCAG | 26500 fluorescence intensity (a.u.)
GTTTCTCCGAGAACGATCAGTGCGCCAGACATTATAAGCGCGGAGTCACCTAGTGCAG | 31500 fluorescence intensity (a.u.)
GTAAGCTCTTACGCACACTGTGCAGCGACGCTTGCAGTGACGGAGTCACCTAGTGCAG | 3420 fluorescence intensity (a.u.)
GGTTTAACCGTTTGGTAGCTGACATGTGCGCCTGGGCATACGGAGTCACCTAGTGCAG | 3380 fluorescence intensity (a.u.)
ATTTTGAGAAACGGAAGAAGTAGCAAAACTTATGTTTGTGCGGAGTCACCTAGTGCAG | 3140 fluorescence intensity (a.u.)
AGGGTAGATGAGGTGCCTTAGTGCCTATGTGGCAAAGTCCCGGAGTCACCTAGTGCAG | 7360 fluorescence intensity (a.u.)
ATCCAGATTTACTTGGTGAGGCCCTAGGCGTGAGTAGGCACGGAGTCACCTAGTGCAG | 3870 fluorescence intensity (a.u.)
CTTCGATCTAATCTTCTTTCCTAATGCCGATATTACCAAACGGAGTCACCTAGTGCAG | 31600 fluorescence intensity (a.u.)
TAGAAAGAATAAGGGATTAGTGTCTACTAGGTGTCATTGTCGGAGTCACCTAGTGCAG | 3510 fluorescence intensity (a.u.)
GGTTGTTGAGATTAGTCCTATCCTTTGTACACGCCACGGCCGGAGTCACCTAGTGCAG | 3520 fluorescence intensity (a.u.)
GTTGAGTCTGCCCTCGTAACCACCAACTAACATGTAAGCCCGGAGTCACCTAGTGCAG | 3150 fluorescence intensity (a.u.)

Reprinted at random: 3 entries already listed.
Sequence | binding signal
CCCTGCCGCCTGCGCCCATCTCCGTCATGCGAGCTGAAGGCGGAGTCACCTAGTGCAG | 3520 fluorescence intensity (a.u.)
ACAGTGGATCCCCGAATTGTCACGGCTGATGTAAGCATATCGGAGTCACCTAGTGCAG | 6040 fluorescence intensity (a.u.)
CCGGCGTACGTCGTCAGCGTTCCAGCCCAAACACATTCCACGGAGTCACCTAGTGCAG | 3350 fluorescence intensity (a.u.)
